{
  "source": "patent US9090657B2",
  "about": "“Compound and methods for its production” (NEUROVIVE PHARMACEUTICAL AB, priority 2011, dated 2015)",
  "origin": "cited, not measured here",
  "details": "relative to Cyclosporine A; cited from earlier work",
  "note": "For at least one compound, name, drawing or mass did not settle the structure.",
  "data": [
    {"compound": "CC[C@H]1C[C@H](C)[C@@]2(NC1=O)O[C@@H](C[C@H](O)[C@@H](C)CC/C=C/C=C(\\C)[C@@H]1C/C=C/C=C/[C@H](O)[C@H](C)[C@@H](O)[C@@H](CCC(C)=O)C(=O)N[C@@H](C(C)C)C(=O)N[C@@H](Cc3cccc(O)c3)C(=O)N3CCC[C@H](N3)C(=O)O1)[C@H](C)[C@H](O)[C@@H]2C", "note": "[Sanglifehrin A, 5, Sanglifehrin A]", "values": [
      {"measurement": "less potent than Cyclosporine A (immunosuppressive)", "result": 10, "unit": "fold"}
    ]}
  ]
}
